No constants are given. Whether binding was seen depends on the method and setting. Some binding calls cover weakened binding; strength is not graded here.
Legend:
[1] = biological target: human BCMA on 3T3-BCMA cell line (human) (UniProt Q02223); assay: flow cytometry, scFv phage on 3T3-BCMA cells, anti-M13 detection
[2] = biological target: biotinylated BCMA-Fc protein (human) (UniProt Q02223); assay: phage ELISA on coated human BCMA ECD-Fc, HRP anti-M13, TMB
[3] = biological target: human BCMA on 3T3-BCMA cell line (human) (UniProt Q02223); assay: FACS on 3T3-BCMA cells, phage, anti-M13 mouse antibody, APC anti-mouse IgG

Sequences of proteins named here, by UniProt entry; tags and fusion partners are left off. A change or cut given only in a name is not applied to a line headed by its entry.
UniProt Q02223: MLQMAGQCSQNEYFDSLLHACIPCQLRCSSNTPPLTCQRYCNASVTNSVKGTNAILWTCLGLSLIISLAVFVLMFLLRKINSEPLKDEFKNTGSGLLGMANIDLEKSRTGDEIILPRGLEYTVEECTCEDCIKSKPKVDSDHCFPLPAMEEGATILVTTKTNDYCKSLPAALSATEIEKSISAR

Measured: binding

B1: ET140-54 scFv phage antibody clone (scFv)
scFv: QSALTQPASVSASPGQSIAISCTGTSSDVGWYQQHPGKAPKLMIYEDSKRPSGVSNRFSGSKSGNTASLTISGLQAEDEADYYCSSNTRSSTLVFGGGTKLTVLGSRGGGGSGGGGSGGGGSLEMAEVQLVQSGAEMKKPGASLKLSCKASGYTFIDYYVYWMRQAPGQGLESMGWINPNSGGTNYAQKFQGRVTMTRDTSISTAYMELSRLRSDDTAMYYCARSQRDGYMDYWGQGTLVTVSS
binds: all assays above

B2: ET140-40 scFv phage antibody clone (scFv)
scFv: QSVLTQPPSVSGAPGQRVTISCTGSSSNIGAGFDVHWYQQLPGTAPKLLIYGNSNRPSGVPDRFSGSKSGTSASLAITGLQAEDEADYYCQSYDSSLSGYVFGTGTKVTVLGSRGGGGSGGGGSGGGGSLEMAQVQLVQSGAEVKKPGASVKVSCKASGYTFTDYYMHWVRQAPGQRLEWMGWINPNSGGTNYAQKFQDRITVTRDTSSNTGYMELTRLRSDDTAVYYCARSPYSGVLDKWGQGTLVTVSS
binds: all assays above

B3: ET140-3 scFv phage antibody clone (scFv)
scFv: LPVLTQPPSASGTPGQRVTISCSGRSSNIGSNSVNWYRQLPGAAPKLLIYSNNQRPPGVPVRFSGSKSGTSASLAISGLQSEDEATYYCATWDDNLNVHYVFGTGTKVTVLGSRGGGGSGGGGSGGGGSLEMAQVQLVQSGAEVKKPGSSVKVSCKASGGTFSSYAISWVRQAPGQGLEWMGRIIPILGIANYAQKFQGRVTITADKSTSTAYMELSSLRSEDTAVYYCARGGYYSHDMWSEDWGQGTLVTVSS
binds: all assays above

From US20200123266A1 (Memorial Sloan Kettering, published 2020)
